PubChem BioAssay AID743121, NCATS, 2013

Aim: 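Partners whose loss is lethal together with topoisomerase I blockade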 (primary screen)
System: MDA-MB-231 cells, a human breast cancer line
Reagents: single siRNA against human genes, 20 nM siRNA (0.8 pmol per well)
Time to read-out: 120 h (drug added 48 h after transfection, read 72 h later)
Conditions: camptothecin 20 nM (about EC30) for 72 h; vehicle 0.1% DMSO in parallel plates
Detection: 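Cell viability by ATP luminescence (CellTiter-Glo) as % of non-targeting siRNA wells, and the log2 ratio of viability without drug over viability with camptothecin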
Direction: log2 vehicle/camptothecin viability: higher = stronger sensitisation to camptothecin; viability with camptothecin and viability without drug: higher = more viable cells
Hit rule: 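Active genes have an RSA gene-level p-value below 0.001, computed from the ratios of their separate siRNAs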
The deposit covers about 26,000 reagents; this is a part drawn at random. Of all reagents, 167 (0.63%) are marked active. 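Calls are per gene from RSA p-values that are not deposited; an individual active-marked siRNA can sensitise only weakly.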 Entries without a mark were called inactive. Reagents against one gene are numbered here.

target gene | siRNA no. | log2 vehicle/camptothecin viability | viability with camptothecin (% of control) | viability without drug (% of control)
CPM | 1 | 0.0864 | 83.1 | 88.2
CPM | 2 | -0.061 | 102 | 97.6
CPM | 3 | -0.36 | 80.8 | 62.9
CPM | 4 | -0.31 | 63.2 | 51
S1PR5 | 1 | 0.545 | 51.8 | 75.6
S1PR5 | 2 | -0.0312 | 23.2 | 22.7
S1PR5 | 3 | 0.807 | 45.8 | 80.1
S1PR5 | 4 | -0.32 | 95.6 | 76.6
FBXO27 | 1 | -0.496 | 104 | 73.8
FBXO27 | 2 | 0.231 | 108 | 126
FBXO27 | 3 | -0.0999 | 109 | 102
FBXO27 | 4 | 0.506 | 68 | 96.5
CHRNG | 1 | -0.438 | 86.2 | 63.7
CHRNG | 2 | -0.503 | 14 | 9.86
CHRNG | 3 | -0.446 | 71.1 | 52.2
LIN9 | 1 | 0.102 | 81.5 | 87.4
LIN9 | 2 | -0.609 | 99.7 | 65.4
LIN9 | 3 | -0.405 | 43.1 | 32.6
LIN9 | 4 | -0.115 | 90 | 83.1
TRPC4AP | 1 | 0.25 | 58.8 | 69.9
TRPC4AP | 2 | -0.101 | 98.1 | 91.5
TRPC4AP | 3 | -0.148 | 70.9 | 64
TRPC4AP | 4 | -0.104 | 84.5 | 78.6
PECAM1 | 1 | 0.185 | 43.4 | 49.3
PECAM1 | 2 | 0.016 | 102 | 103
PECAM1 | 3 | -0.0395 | 110 | 107
PECAM1 | 4 | 0.376 | 64.4 | 83.6
COL1A1 | 1 | 0.071 | 48.4 | 50.9
COL1A1 | 2 | -0.152 | 121 | 109
COL1A1 | 3 | -0.0642 | 84.4 | 80.7
COL1A1 | 4 | 0.103 | 58.9 | 63.2
KLF10 | 1 | -0.35 | 67.5 | 52.9
KLF10 | 2 | -0.404 | 74.4 | 56.2
KLF10 | 3 | -0.556 | 70.5 | 48
OSGEP | 1 | -0.0364 | 109 | 107
OSGEP | 2 | 0.309 | 24.4 | 30.2
OSGEP | 3 | -0.469 | 60.1 | 43.5
OSGEP | 4 | -0.508 | 84.5 | 59.4
XRCC6 | 1 | 0.934 | 14.7 | 28.1
XRCC6 | 2 | -0.0916 | 72 | 67.6
XRCC6 | 3 | -0.211 | 46.4 | 40.1
XRCC6 | 4 | 0.0743 | 90.3 | 95
MPP2 | 1 | -0.189 | 71.2 | 62.4
MPP2 | 2 | -0.456 | 23.5 | 17.1
MPP2 | 3 | -0.132 | 84.3 | 76.9
MPP2 | 4 | -0.00628 | 109 | 108
